Reference: publication PMC6199744, “Development of Chemical Proteomics for the Folateome and Analysis of the Kinetoplastid Folateome” (ACS Infectious Diseases, 2018)
The source gives many values for each of these; only a part stands here.

Tested on: L. major lysate proteins
Experiment: Multitargeted bead mixture chemoproteomics, single concentration competition, proteome-wide
Assay type: binding

With `Nc1nc2c(c(=O)[nH]1)N(C=O)C(CNc1ccc(C(=O)N[C@@H](CCC(=O)O)C(=O)O)cc1)CN2` (stereo partly drawn) [LEU, leucovorin] the “fold change vs vehicle control” value (protein LMJF.32.0400 ATP-DEPENDENT RNA HELICASE, PUTATIVE) was 1.03, the “fold change vs vehicle control” value (protein LMJF.32.0520 PROFILIN, PUTATIVE) was 0.94 and the fold change (protein LMJF.32.1000 CHAPERONIN CONTAINING T-COMPLEX PROTEIN, PUTATIVE, vehicle control = 1) was 0.94. For the same molecule, the fold change (protein LMJF.32.3010 HYPOTHETICAL PROTEIN, CONSERVED,LEUCINE-RICH REPEAT PROTEIN, PUTATIVE, vehicle control = 1) was 0.99, the fold change (protein LMJF.32.3270 […] SUBUNIT, PUTATIVE, vehicle control = 1) was 1.03 and the fold change (protein LMJF.32.3310 DIHYDROLIPOAMIDE DEHYDROGENASE, PUTATIVE, vehicle control = 1) was 1.1. The fold change (protein LMJF.33.2060 HYPOTHETICAL PROTEIN, CONSERVED, vehicle control = 1) was 0.97, the fold change (protein LMJF.33.2300 UDP-GLC 4'-EPIMERASE, PUTATIVE, vehicle control = 1) was 1.04 and the fold change (protein LMJF.33.2390 HEAT SHOCK PROTEIN, PUTATIVE, vehicle control = 1) was 1.11. The fold change (protein LMJF.33.2410 HYPOTHETICAL PROTEIN, CONSERVED, vehicle control = 1) was 0.93, the fold change (protein LMJF.34.0840 T[…] 1-BETA, PUTATIVE, vehicle control = 1) was 1.14 and the fold change (protein LMJF.34.0930 HYPOTHETICAL PROTEIN, CONSERVED, vehicle control = 1) was 0.99. The fold change (protein LMJF.34.2340 ASPARAGINYL-TRNA SYNTHETASE, PUTATIVE, vehicle control = 1) was 1.07, the fold change (protein LMJF.34.2610 ATP-DEPENDENT DNA HELICASE, PUTATIVE,RUVB DNA HELICASE-LIKE PROTEIN, PUTATIVE, vehicle control = 1) was 1.08 and the fold change (protein LMJF.34.2820 REGULATORY SUBUNIT OF PROTEIN KINASE A-LIKE PROTEIN, vehicle control = 1) was 0.81. The fold change (protein LMJF.34.3500 RUVB-LIKE 1 DNA HELICASE, PUTATIVE, vehicle control = 1) was 0.83, the fold change (protein LMJF.34.3670 VACUOLAR ATP SYNTHASE CATALYTIC SUBUNIT A, PUTATIVE, vehicle control = 1) was 0.94 and the fold change (protein LMJF.34.4120 HYPOTHETICAL PROTEIN, CONSERVED, vehicle control = 1) was 0.94. For the same molecule, the fold change (protein LMJF.35.0030 PYRUVATE KINASE, vehicle control = 1) was 1.16, the fold change (protein LMJF.35.0240 60S RIBOSOMAL PROTEIN L30, vehicle control = 1) was 1.01 and the fold change (protein LMJF.35.0760 CBS DOMAIN PROTEIN, CONSERVED, vehicle control = 1) was 0.96. For the same molecule, the fold change (protein LMJF.35.0820 ASPARTATE AMINOTRANSFERASE, PUTATIVE, vehicle control = 1) was 0.92, the fold change (protein LMJF.35.1130 OLIGOSACCHARYL TRANSFERASE SUBUNIT, PUTATIVE, vehicle control = 1) was 0.84 and the “fold change vs vehicle control” value (protein LMJF.35.1410 THREONYL-TRNA SYNTHETASE, PUTATIVE) was 0.94. The fold change (protein LMJF.35.1720 CYCLOPHILIN 14, PUTATIVE, vehicle control = 1) was 1.05, the fold change (protein LMJF.35.2730 ACYL-COA DEHYDROGENASE, PUTATIVE, vehicle control = 1) was 0.95 and the fold change (protein LMJF.35.3080 GLYCEROL KINASE, GLYCOSOMAL, PUTATIVE, vehicle control = 1) was 1.01. The fold change (protein LMJF.35.3100 ATP-DEPENDENT RNA HELICASE, PUTATIVE, vehicle control = 1) was 1.05, the fold change (protein LMJF.35.3230 C[…] LYASE, PUTATIVE, vehicle control = 1) was 1.11 and the fold change (protein LMJF.35.3790 60S RIBOSOMAL PROTEIN L23, PUTATIVE, vehicle control = 1) was 1.02. The fold change (protein LMJF.35.4130 POLY(A)-BINDING PROTEIN 2, vehicle control = 1) was 1.06, the fold change (protein LMJF.35.4850 […] 1 SUBUNIT, PUTATIVE, vehicle control = 1) was 1.03 and the fold change (protein LMJF.36.0180 […] 2, vehicle control = 1) was 1.14. The fold change (protein LMJF.36.0210 SET DOMAIN PROTEIN, PUTATIVE, vehicle control = 1) was 1.12, the fold change (protein LMJF.36.0740 HYPOTHETICAL PROTEIN, CONSERVED, vehicle control = 1) was 0.98 and the “fold change vs vehicle control” value (protein LMJF.36.0900 PROTEIN KINASE, PUTATIVE,SNF1-RELATED PROTEIN KINASES, PUTATIVE) was 0.81. The fold change (protein LMJF.36.1430 TRANSLATION ELONGATION FACTOR 1-BETA, PUTATIVE, vehicle control = 1) was 0.95, the fold change (protein LMJF.36.1940 INOSINE-GUANOSINE TRANSPORTER, vehicle control = 1) was 1.04 and the fold change (protein LMJF.36.2020 CHAPERONIN HSP60, MIT[…], vehicle control = 1) was 1.14. For the same molecule, the “fold change vs vehicle control” value (protein LMJF.36.3530 POLYUBIQUITIN, PUTATIVE) was 1.03, the fold change (protein LMJF.36.4360 […] SUBUNIT, vehicle control = 1) was 1.04 and the fold change (protein LMJF.36.4420 60S RIBOSOMAL PROTEIN L22, PUTATIVE, vehicle control = 1) was 0.91. The fold change (protein LMJF.36.4460 HYPOTHETICAL PROTEIN, CONSERVED, vehicle control = 1) was 0.99, the fold change (protein LMJF.36.5940 HYPOTHETICAL PROTEIN, CONSERVED, vehicle control = 1) was 0.99 and the fold change (protein LMJF.36.6910 T-COMPLEX PROTEIN 1, THETA SUBUNIT, PUTATIVE,CHAPERONIN, PUTATIVE, vehicle control = 1) was 0.98. The fold change (protein LMJF.36.6980 EUKARYOTIC TRANSLATION INITIATION FACTOR 3 SUBUNIT 8, PUTATIVE, vehicle control = 1) was 0.98, the fold change (vs vehicle control, protein CLM00008612.1 UNNAMED PROTEIN PRODUCT) was 0.85 and the fold change (vs vehicle control, protein LINJ.20.0820 VESICLE-FUSING ATPASE, PUTATIVE,N-ETHYLMALEIMIDE-SENSITIVE FACTOR, PUTATIVE) was 0.96. It also gave a fold change (vs vehicle control, protein LINJ.36.1160 RIBOSOMAL PROTEIN L24, PUTATIVE) of 0.97, a fold change (vs vehicle control, protein LMJF.02.0370 PROTEASOME REGULATORY NON-ATPASE SUBUNIT 6, PUTATIVE) of 0.89 and a fold change (vs vehicle control, protein LMJF.05.0380 MICROTUBULE-ASSOCIATED PROTEIN, PUTATIVE) of 0.92. For the same molecule, the fold change (vs vehicle control, protein LMJF.05.0780 HYPOTHETICAL PROTEIN, CONSERVED) was 1, the fold change (vs vehicle control, protein LMJF.06.0010 HISTONE H4) was 0.78 and the fold change (vs vehicle control, protein LMJF.06.0370 GLUTAMINE SYNTHETASE, PUTATIVE) was 0.96. For the same molecule, the fold change (vs vehicle control, protein LMJF.07.0460 ACYL-COA DEHYDROGENASE, MITOCHONDRIAL PRECURSOR, PUTATIVE) was 1.58, the fold change (vs vehicle control, protein LMJF.08.1222 HYPOTHETICAL PROTEIN, CONSERVED) was 0.73 and the fold change (vs vehicle control, protein LMJF.10.0510 GLYCEROL-3-PHOSPHATE DEH[…] ], GLYCOSOMAL) was 1.06. For the same molecule, the fold change (vs vehicle control, protein LMJF.10.0910 SMALL GTP-BINDING PROTEIN RAB11, PUTATIVE) was 0.95, the fold change (vs vehicle control, protein LMJF.11.0130 NGG1 I[…] 3-LIKE PROTEIN) was 0.99 and the fold change (vs vehicle control, protein LMJF.11.0480 HY[…], CONSERVED) was 0.74. It also gave a fold change (vs vehicle control, protein LMJF.11.1100 LANOSTEROL 14-ALPHA-DEMETHYLASE, PUTATIVE) of 0.88, a fold change (vs vehicle control, protein LMJF.11.1190 40S RIBOSOMAL PROTEIN S15A, PUTATIVE) of 0.97 and a fold change (vs vehicle control, protein LMJF.13.1360 HYPOTHETICAL PROTEIN, CONSERVED) of 0.71. For the same molecule, the fold change (vs vehicle control, protein LMJF.14.0130 INOSINE-GUANINE NUCLEOSIDE HYDROLASE, PUTATIVE) was 0.97, the fold change (vs vehicle control, protein LMJF.14.1320 SERINE […] (SHMT-S)) was 1.02 and the fold change (vs vehicle control, protein LMJF.15.0190 HYPOTHETICAL PROTEIN, CONSERVED) was 1.
